Results published in the supplement of paper PMC12819154, “High-throughput peptide-centric local stability assay extends protein–ligand identification to membrane proteins, tissues and bacteria” (Nature Structural & Molecular Biology, 2025).
The other results are listed elsewhere or left out. Most entries show no effect beyond the scatter of the controls.

Sequences of proteins named here, by UniProt entry; tags and fusion partners are left off. A change or cut given only in a name is not applied to a line headed by its entry.
UniProt Q9QXS1: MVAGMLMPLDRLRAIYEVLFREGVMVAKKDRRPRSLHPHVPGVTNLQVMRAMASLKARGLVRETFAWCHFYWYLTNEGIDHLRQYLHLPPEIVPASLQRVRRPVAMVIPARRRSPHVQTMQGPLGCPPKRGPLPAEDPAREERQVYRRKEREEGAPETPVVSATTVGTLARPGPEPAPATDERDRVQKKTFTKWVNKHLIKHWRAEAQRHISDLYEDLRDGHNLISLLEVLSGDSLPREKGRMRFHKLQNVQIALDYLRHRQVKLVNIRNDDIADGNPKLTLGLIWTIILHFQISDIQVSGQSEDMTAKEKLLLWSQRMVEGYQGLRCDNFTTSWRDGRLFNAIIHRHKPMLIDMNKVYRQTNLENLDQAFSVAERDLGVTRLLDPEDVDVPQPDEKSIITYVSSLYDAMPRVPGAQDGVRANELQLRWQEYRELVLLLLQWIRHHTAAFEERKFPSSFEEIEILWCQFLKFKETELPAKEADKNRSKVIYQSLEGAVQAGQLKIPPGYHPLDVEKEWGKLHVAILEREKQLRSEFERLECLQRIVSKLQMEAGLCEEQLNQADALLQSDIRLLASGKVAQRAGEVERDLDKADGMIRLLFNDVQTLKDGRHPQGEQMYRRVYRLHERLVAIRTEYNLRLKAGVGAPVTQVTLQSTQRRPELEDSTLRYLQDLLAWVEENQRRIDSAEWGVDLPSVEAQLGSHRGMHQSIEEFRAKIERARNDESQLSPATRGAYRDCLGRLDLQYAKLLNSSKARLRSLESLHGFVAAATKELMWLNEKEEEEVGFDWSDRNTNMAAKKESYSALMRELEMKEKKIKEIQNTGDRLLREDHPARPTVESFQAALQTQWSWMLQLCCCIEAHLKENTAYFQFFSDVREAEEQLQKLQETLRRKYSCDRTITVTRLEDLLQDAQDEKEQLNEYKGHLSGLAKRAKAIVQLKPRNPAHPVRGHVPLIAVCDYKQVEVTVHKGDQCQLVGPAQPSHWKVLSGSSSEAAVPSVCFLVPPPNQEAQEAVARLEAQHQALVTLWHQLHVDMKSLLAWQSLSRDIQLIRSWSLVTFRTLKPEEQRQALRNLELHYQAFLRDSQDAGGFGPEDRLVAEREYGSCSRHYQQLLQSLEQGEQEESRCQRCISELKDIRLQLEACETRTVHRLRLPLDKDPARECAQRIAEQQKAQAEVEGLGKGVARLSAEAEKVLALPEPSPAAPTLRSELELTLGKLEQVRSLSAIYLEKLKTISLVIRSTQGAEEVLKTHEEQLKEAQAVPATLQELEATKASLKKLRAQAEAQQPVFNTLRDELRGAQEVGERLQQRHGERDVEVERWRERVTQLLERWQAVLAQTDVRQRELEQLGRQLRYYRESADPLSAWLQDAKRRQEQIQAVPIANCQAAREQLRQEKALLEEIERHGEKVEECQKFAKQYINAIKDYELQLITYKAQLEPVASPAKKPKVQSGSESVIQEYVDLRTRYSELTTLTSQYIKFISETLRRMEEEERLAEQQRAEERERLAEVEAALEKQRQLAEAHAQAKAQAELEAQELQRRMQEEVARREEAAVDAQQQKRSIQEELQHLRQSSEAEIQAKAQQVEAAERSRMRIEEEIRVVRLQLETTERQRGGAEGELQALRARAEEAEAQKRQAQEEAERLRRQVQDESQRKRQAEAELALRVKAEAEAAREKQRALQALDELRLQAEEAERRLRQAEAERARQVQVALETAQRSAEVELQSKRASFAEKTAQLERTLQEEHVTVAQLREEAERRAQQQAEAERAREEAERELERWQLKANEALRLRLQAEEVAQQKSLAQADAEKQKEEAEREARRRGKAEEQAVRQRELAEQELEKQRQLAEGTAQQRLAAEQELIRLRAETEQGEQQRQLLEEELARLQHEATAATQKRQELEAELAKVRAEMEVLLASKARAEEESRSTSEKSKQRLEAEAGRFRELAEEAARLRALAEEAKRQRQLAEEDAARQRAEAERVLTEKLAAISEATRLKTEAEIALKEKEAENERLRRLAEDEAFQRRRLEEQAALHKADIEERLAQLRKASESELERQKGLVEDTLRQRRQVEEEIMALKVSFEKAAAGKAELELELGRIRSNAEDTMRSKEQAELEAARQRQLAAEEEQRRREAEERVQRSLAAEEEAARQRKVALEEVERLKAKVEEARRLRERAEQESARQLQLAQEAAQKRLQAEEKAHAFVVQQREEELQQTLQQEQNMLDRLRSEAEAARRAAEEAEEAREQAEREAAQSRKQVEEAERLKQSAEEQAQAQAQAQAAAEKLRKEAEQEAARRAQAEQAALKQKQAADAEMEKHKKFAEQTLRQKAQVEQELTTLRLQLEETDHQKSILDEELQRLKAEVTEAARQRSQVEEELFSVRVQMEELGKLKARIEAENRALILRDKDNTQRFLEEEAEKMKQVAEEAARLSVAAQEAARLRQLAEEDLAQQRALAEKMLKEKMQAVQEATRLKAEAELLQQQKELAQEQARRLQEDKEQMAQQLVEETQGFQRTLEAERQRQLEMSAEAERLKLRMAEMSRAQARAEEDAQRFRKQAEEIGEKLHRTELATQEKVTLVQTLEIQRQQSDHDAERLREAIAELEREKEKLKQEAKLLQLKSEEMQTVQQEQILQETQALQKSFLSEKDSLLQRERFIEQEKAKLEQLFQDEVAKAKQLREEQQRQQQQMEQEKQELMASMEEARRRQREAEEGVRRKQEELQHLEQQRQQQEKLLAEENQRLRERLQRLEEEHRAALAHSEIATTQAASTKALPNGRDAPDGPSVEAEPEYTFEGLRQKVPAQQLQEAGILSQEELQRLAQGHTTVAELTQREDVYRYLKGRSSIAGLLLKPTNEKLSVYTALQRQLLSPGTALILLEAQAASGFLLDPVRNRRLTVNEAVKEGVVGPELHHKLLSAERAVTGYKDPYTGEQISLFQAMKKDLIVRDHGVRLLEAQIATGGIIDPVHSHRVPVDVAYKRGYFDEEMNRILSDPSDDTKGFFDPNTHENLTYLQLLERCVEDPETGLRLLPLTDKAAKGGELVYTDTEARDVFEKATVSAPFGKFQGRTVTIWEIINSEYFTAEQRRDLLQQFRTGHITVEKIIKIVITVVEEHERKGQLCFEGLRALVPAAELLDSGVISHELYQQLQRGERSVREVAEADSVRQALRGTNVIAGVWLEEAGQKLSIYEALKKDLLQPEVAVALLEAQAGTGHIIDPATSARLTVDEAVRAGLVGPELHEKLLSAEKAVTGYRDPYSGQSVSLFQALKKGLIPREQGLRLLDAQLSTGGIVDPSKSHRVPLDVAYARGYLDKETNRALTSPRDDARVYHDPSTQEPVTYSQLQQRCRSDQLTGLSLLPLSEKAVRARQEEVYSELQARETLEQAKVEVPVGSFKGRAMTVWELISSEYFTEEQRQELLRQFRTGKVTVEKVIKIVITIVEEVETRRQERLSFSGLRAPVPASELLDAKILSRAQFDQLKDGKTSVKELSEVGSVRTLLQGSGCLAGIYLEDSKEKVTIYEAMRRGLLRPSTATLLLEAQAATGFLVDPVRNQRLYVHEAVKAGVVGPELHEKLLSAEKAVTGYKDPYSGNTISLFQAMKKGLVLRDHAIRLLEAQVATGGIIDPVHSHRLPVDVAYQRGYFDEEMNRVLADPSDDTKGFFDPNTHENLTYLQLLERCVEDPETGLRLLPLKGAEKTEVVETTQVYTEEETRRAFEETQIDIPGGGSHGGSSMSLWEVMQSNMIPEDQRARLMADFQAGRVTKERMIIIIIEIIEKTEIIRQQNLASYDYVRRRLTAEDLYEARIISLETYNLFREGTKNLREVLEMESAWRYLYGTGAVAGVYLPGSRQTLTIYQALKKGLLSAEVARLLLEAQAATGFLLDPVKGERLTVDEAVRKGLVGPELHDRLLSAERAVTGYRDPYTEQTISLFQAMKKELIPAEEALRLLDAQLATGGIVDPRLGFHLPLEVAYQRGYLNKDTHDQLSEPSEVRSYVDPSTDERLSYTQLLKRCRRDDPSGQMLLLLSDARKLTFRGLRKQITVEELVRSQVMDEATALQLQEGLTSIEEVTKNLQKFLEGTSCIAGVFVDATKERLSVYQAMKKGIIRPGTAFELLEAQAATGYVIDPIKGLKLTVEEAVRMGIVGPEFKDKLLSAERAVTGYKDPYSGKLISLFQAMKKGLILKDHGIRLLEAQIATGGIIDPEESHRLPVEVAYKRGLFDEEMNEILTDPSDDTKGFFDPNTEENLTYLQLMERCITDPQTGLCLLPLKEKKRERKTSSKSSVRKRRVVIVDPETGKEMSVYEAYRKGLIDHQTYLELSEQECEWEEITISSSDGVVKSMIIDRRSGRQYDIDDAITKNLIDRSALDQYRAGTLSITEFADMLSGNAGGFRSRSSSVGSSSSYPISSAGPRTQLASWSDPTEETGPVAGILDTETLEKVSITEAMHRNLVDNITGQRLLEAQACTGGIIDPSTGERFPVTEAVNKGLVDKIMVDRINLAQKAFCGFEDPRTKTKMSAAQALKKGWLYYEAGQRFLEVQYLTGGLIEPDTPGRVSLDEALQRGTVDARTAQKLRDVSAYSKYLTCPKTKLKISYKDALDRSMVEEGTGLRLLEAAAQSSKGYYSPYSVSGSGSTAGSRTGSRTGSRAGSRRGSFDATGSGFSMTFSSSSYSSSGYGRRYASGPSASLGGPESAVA
UniProt Q9QXX4: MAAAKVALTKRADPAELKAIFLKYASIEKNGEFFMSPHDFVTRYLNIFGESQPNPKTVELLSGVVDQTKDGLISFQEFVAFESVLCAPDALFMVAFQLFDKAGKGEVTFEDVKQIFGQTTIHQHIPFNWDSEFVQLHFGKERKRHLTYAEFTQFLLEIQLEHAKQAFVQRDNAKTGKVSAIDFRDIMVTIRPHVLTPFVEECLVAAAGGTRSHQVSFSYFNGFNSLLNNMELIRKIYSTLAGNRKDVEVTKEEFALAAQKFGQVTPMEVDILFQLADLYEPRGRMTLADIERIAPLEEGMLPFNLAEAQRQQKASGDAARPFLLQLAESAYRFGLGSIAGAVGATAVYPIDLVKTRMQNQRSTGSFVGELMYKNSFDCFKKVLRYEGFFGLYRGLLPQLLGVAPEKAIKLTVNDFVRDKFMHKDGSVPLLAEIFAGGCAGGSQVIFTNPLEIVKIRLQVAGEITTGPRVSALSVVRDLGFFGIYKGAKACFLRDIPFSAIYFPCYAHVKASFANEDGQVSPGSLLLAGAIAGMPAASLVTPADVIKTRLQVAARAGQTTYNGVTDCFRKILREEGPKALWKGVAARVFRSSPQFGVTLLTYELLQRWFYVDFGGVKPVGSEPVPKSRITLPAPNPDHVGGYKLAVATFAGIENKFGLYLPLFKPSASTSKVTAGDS
UniProt Q9DC69, whole entry: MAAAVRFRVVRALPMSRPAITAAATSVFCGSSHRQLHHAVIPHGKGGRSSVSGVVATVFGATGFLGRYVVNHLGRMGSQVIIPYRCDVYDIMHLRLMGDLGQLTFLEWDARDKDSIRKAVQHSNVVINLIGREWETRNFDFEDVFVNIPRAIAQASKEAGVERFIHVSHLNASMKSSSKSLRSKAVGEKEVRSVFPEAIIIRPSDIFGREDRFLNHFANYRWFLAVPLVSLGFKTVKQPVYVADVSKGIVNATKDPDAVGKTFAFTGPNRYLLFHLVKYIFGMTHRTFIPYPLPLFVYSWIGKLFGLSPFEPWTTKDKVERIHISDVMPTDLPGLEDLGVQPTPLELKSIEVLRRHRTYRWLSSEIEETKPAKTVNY
UniProt Q9EST4: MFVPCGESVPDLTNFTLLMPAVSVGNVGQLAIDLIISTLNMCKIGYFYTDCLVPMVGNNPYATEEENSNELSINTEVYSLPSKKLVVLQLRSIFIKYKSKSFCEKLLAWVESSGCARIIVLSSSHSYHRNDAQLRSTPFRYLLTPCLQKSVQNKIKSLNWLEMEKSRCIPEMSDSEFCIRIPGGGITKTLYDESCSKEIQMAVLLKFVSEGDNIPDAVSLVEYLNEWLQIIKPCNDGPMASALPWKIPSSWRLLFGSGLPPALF
UniProt Q9DCX8: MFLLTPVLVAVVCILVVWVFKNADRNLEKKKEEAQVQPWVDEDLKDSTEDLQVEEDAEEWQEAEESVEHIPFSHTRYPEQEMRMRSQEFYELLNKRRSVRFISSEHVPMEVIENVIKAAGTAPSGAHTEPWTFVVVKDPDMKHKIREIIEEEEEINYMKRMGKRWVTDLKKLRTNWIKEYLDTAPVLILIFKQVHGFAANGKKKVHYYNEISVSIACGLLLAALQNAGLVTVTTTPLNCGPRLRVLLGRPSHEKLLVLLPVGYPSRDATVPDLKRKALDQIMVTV
UniProt Q9JLJ5: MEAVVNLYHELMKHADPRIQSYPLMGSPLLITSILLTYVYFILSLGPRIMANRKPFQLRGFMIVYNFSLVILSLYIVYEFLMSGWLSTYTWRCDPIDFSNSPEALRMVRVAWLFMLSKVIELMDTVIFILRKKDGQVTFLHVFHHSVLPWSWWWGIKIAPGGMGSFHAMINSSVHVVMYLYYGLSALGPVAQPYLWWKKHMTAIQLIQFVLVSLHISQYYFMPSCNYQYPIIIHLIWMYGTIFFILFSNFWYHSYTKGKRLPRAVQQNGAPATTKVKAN

Compound: CN[C@@H]1C[C@H]2O[C@@](C)([C@@H]1OC)n1c3ccccc3c3c4c(c5c6ccccc6n2c5c31)C(=O)NC4 [staurosporine]
Assay: log2 fold change of pooled soluble protein (PISA), ligand vs vehicle (log2 ratio); higher = more thermally stabilized
Conditions: ligand concentration: 20 uM; assay format: PISA pool 52.9/55.5/58.6 C

| Target | log2 fold change of pooled soluble protein |
| --- | --- |
| UniProt Q9DC71 | 0.193 |
| UniProt Q9JKB1 | 0.105 |
| UniProt Q9JME7 | -0.0388 |
| UniProt Q9QXS1 | 0.0527 |
| UniProt Q9JHX2 | -0.137 |
| UniProt Q9JK38 | -0.108 |
| UniProt Q9QX60 | 0.0313 |
| UniProt Q9EPE9 | -0.29 |
| UniProt Q9EQG9 | 0.0128 |
| UniProt Q9JKV5 | 0.661 |
| UniProt Q9JI58 | -0.00694 |
| UniProt Q9DCC8 | -0.0884 |
| UniProt Q9QXX4 | 0.0413 |
| UniProt Q9ERF3 | 0.405 |
| UniProt Q9JL15 | -0.0337 |
| UniProt Q9QXF8 | -0.0239 |
| UniProt Q9DCS9 | -0.0394 |
| UniProt Q9DCY0 | -0.147 |
| UniProt Q9JII6 | -0.0924 |

An excerpt of these results, as labelled records:
UniProt Q9DC71
  log2 fold change of pooled soluble protein: 0.193
UniProt Q9JHX2
  log2 fold change of pooled soluble protein: -0.137

The listing continues:

| Target | log2 fold change of pooled soluble protein |
| --- | --- |
| UniProt Q9DCZ4 | 0.134 |
| UniProt Q9JJ89 | -0.12 |
| UniProt Q9JJX6 | -0.0113 |
| UniProt Q9DCL2 | -0.277 |
| UniProt Q9QUH0 | 0.016 |
| UniProt Q9DC69 | -0.106 |
| UniProt Q9EST4 | 0.0379 |
| UniProt Q9JLT4 | -0.141 |
| UniProt Q9DCX2 | 0.0545 |
| UniProt Q9QXK3 | -0.014 |
| UniProt Q9JHI7 | -0.122 |
| UniProt Q9JM96 | -0.209 |
| UniProt Q9QXD8 | 0.00418 |
| UniProt Q9JI39 | 0.0292 |
| UniProt Q9JII5 | 0.245 |
| UniProt Q9DCX8 | 0.043 |
| UniProt Q9JLJ5 | -0.225 |
| UniProt Q9DCK3 | 0.116 |
